Source: patent US20160256560A1 (priority 2010, published 2016)

Experiment: general procedure: Fmoc solid-phase peptide synthesis

Q: For pHLIP-K(TAMRA)-C(TAMRA), which conjugation yield (conjugation step, overall) is on record?
A: The conjugation yield was 69%.

Q: What about the step yield (late stage modification step) of the same substance?
A: The step yield was greater than 90%.
